For the experiment, the target named is GST-URM1 (ubiquitin-related modifier 1) (human). As to the kind of experiment: pull-down; beads coated with GST-fusion proteins incubated 2 h at 4 °C with lysate of transfected HeLa cells (50 mM HEPES pH 7.4, 250 mM NaCl, 10 mM MgCl2, 1% Triton X-100); five washes; immunoblot with anti-GFP; only the target purified. In general terms: Immunoblotting shows a protein as a band on a membrane.

Data on one molecule can be found in PMC7005872.

No constants are given. Whether binding was seen depends on the method and setting. Binding seen in cells or lysates may run through a third protein. Tags and fused reporters may be left off the sequences shown.

B1: GFP-TBC1D9 (TBC1 domain family member 9) (protein, UniProt Q6ZT07 1-1266)
chain: MWVNPEEVLLANALWITERANPYFILQRRKGHAGDGGGGGGLAGLLVGTLDVVLDSSARVAPYRILYQTPDSLVYWTIACGGSRKEITEHWEWLEQNLLQTLSIFENENDITTFVRGKIQGIIAEYNKINDVKEDDDTEKFKEAIVKFHRLFGMPEEEKLVNYYSCSYWKGKVPRQGWMYLSINHLCFYSFLMGREAKLVIRWVDITQLEKNATLLLPDVIKVSTRSSEHFFSVFLNINETFKLMEQLANIAMRQLLDNEGFEQDRSLPKLKRKSPKKVSALKRDLDARAKSERYRALFRLPKDEKLDGHTDCTLWTPFNKMHILGQMFVSTNYICFTSKEENLCSLIIPLREVTIVEKADSSSVLPSPLSISTRNRMTFLFANLKDRDFLVQRISDFLQQTTSKIYSDKEFAGSYNSSDDEVYSRPSSLVSSSPQRSTSSDADGERQFNLNGNSVPTATQTLMTMYRRRSPEEFNPKLAKEFLKEQAWKIHFAEYGQGICMYRTEKTRELVLKGIPESMRGELWLLLSGAINEKATHPGYYEDLVEKSMGKYNLATEEIERDLHRSLPEHPAFQNEMGIAALRRVLTAYAFRNPNIGYCQAMNIVTSVLLLYAKEEEAFWLLVALCERMLPDYYNTRVVGALVDQGVFEELARDYVPQLYDCMQDLGVISTISLSWFLTLFLSVMPFESAVVVVDCFFYEGIKVIFQLALAVLDANVDKLLNCKDDGEAMTVLGRYLDSVTNKDSTLPPIPHLHSLLSDDVEPYPEVDIFRLIRTSYEKFGTIRADLIEQMRFKQRLKVIQTLEDTTKRNVVRTIVTETSFTIDELEELYALFKAEHLTSCYWGGSSNALDRHDPSLPYLEQYRIDFEQFKGMFALLFPWACGTHSDVLASRLFQLLDENGDSLINFREFVSGLSAACHGDLTEKLKLLYKMHVLPEPSSDQDEPDSAFEATQYFFEDITPECTHVVGLDSRSKQGADDGFVTVSLKPDKGKRANSQENRNYLRLWTPENKSKSKNAKDLPKLNQGQFIELCKTMYNMFSEDPNEQELYHATAAVTSLLLEIGEVGKLFVAQPAKEGGSGGSGPSCHQGIPGVLFPKKGPGQPYVVESVEPLPASLAPDSEEHSLGGQMEDIKLEDSSPRDNGACSSMLISDDDTKDDSSMSSYSVLSAGSHEEDKLHCEDIGEDTVLVRSGQGTAALPRSTSLDRDWAITFEQFLASLLTEPALVKYFDKPVCMMARITSAKNIRMMGKPLTSASDYEISAMSG
As to B1, the binding entry is “no binding”.
